Assay results reported in US20250288612A1 (TOPMUNNITY THERAPEUTICS TAIWAN, published 2025).
Results are given in words; binding and its absence hold for the method and conditions named. Some results given as binding are weak or reduced against the parent protein; the word gives no strength.

Amino acid sequences for entries named in this document (tags omitted). A change or cut given only in a name is not applied to a line headed by its entry.
UniProt Q9NZQ7: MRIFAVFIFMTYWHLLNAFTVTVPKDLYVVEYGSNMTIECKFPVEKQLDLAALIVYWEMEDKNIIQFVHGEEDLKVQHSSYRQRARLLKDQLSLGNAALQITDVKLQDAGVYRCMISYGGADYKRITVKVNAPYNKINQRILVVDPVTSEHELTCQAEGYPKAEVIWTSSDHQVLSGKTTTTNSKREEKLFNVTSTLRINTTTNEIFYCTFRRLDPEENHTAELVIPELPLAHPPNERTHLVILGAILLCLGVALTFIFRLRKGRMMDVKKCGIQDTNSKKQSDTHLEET

Columns and labels:
[1] = biological target: T1, recombinant PD-L1 (UniProt Q9NZQ7 19-238, limits assumed); experiment: SPR, Biacore T200
T1 construct: also called Programmed Death-Ligand 1

[2] = biological target: T1, recombinant PD-L1; experiment: SPR, Biacore T200, multi-cycle kinetics, hTT-01 captured on Sensor Chip Protein A, PD-L1 injected as analyte, 25 C

B1: humanized anti-PD-L1 monoclonal antibody hTT-01 (antibody, V domains shown)
VH: EVQLVESGGGLVKPGGSLRLSCAASGFSLSNYVMSWVRQAPGKGLEWVATISSGGRYIYYTDSVKGRFTISRDNAKNSLYLQMNSLRAEDTAVYYCARDGSTLYYFDYWGQGTTVTVSS
VL: QTVLTQSPATLSLSPGERATLSCSASSSVDYMYWYQQKPGQAPRLLIYDTSNLATGIPARFSGSGSGTDFTLTISSLEPEDFATYYCQQWSSSPPITFGQGTKVEIK
notes: It was captured through its Fc on a Protein A chip, and an anti-human IgG secondary antibody was used in FACS; also called TT-01 humanized monoclonal antibody
In the case of B1, the binding [1] is reported as “binds” and the binding [2] is reported as “binds”.
